Reference: paper PMC2249700
These are yes or no findings as the source states them, for the method shown. In cells and extracts the contact can be indirect. Some results given as binding are weak or reduced against the parent protein; the word gives no strength. Where a sequence is shown, tags or fusion partners need not be part of it.

Target: T1, SKAP-55, transfected (UniProt Q86WV1)
T1 sequence: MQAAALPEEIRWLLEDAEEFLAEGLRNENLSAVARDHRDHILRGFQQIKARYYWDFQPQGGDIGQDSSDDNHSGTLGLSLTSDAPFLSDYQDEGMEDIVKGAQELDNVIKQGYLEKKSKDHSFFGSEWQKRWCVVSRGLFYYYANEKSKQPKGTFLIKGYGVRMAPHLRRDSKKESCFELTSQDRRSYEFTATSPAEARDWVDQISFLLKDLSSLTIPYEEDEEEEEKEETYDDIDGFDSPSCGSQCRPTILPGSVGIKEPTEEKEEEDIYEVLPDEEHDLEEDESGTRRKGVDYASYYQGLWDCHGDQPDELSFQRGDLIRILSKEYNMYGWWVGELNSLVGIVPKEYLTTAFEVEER
Experiment: co-IP; Jurkat cells transfected with myc-RasGRP1 plus SKAP-55 or SKAP-55ΔSH3; anti-SKAP-55 precipitates blotted for RasGRP1

binding: binds
B1: myc-RasGRP1 (protein, UniProt O95267 1-797)
chain: MGTLGKAREAPRKPSHGCRAASKARLEAKPANSPFPSHPSLAHITQFRMMVSLGHLAKGASLDDLIDSCIQSFDADGNLCRSNQLLQVMLTMHRIVISSAELLQKVITLYKDALAKNSPGLCLKICYFVRYWITEFWVMFKMDASLTDTMEEFQELVKAKGEELHCRLIDTTQINARDWSRKLTQRIKSNTSKKRKVSLLFDHLEPEELSEHLTYLEFKSFRRISFSDYQNYLVNSCVKENPTMERSIALCNGISQWVQLMVLSRPTPQLRAEVFIKFIQVAQKLHQLQNFNTLMAVIGGLCHSSISRLKETSSHVPHEINKVLGEMTELLSSSRNYDNYRRAYGECTDFKIPILGVHLKDLISLYEAMPDYLEDGKVNVHKLLALYNHISELVQLQEVAPPLEANKDLVHLLTLSLDLYYTEDEIYELSYAREPRNHRAPPLTPSKPPVVVDWASGVSPKPDPKTISKHVQRMVDSVFKNYDHDQDGYISQEEFEKIAASFPFSFCVMDKDREGLISRDEITAYFMRASSIYSKLGLGFPHNFQETTYLKPTFCDNCAGFLWGVIKQGYRCKDCGMNCHKQCKDLVVFECKKRAKNPVAPTENNTSVGPVSNLCSLGAKDLLHAPEEGPFTFPNGEAVEHGEESKDRTIMLMGVSSQKISLRLKRAVAHKATQTESQPWIGSEGPSGPFVLSSPRKTAQDTLYVLPSPTSPCPSPVLVRKRAFVKWENKDSLIKSKEELRHLRLPTYQELEQEINTLKADNDALKIQLKYAQKKIESLQLEKSNHVLAQMEQGDCS
